Measured values taken from the supplement of paper PMC10735217.
Counter-ions that a name gives are not always drawn. The list shows a part of the results. Repeats in this data set agree poorly, so a single value says little.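 Human kidney-derived cells stably carry a construct in which eight TEAD-binding elements drive luciferase, measured by luminescence in a drug-repurposing library screen. A hit is any compound whose signal exceeds the plate mean by more than five robust Z scores.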

Test system: HEK293A TEAD-LUC reporter
Experiment: TEAD-luciferase reporter activity (YAP activation), robust Z score vs plate; higher = stronger YAP/TEAD activation
Details: 24 h

Compound	TEAD-luciferase reporter activity (compound concentration: 200 nM)	TEAD-luciferase reporter activity (compound concentration: 2 uM)	TEAD-luciferase reporter activity (compound concentration: 10 uM)
Nc1c(Cl)cc(C=C2NCCN2)cc1Cl [Nemazoline hydrochloride]	inactive: -1.51	inactive: 0.282	inactive: -0.525
C(#CCC1(Cc2ccccc2)c2ccccc2-c2ccccc21)CN1CCCCCC1	inactive: -1.67	inactive: -0.117	inactive: 1.27
CN(C)C1C(=O)C(C(N)=O)C(=O)C2(O)C(=O)C3C(=O)c4c(O)ccc([N+](=O)[O-])c4CC3CC12 (configuration not stated)	inactive: -0.45	inactive: -1.55	inactive: -0.594
CCCN(CCCCN1C(=O)CC2(CCCC2)CC1=O)C1COc2cccc(OC)c2C1 (configuration not stated)	inactive: -1.29	inactive: 0.473	inactive: 2
CNC(=O)c1cnn(-c2nc(N)c3ncn([C@@H]4O[C@H](CO)[C@@H](O)[C@H]4O)c3n2)c1 [Regadenoson]	inactive: -3.37	inactive: -0.37	active: 12.7
CCCC(=O)N1Cc2ccccc2CC2(CCCCN2Cc2ccncc2)C1 (configuration not stated)	inactive: -0.966	–	inactive: -0.583
COc1cc(C)c(S(=O)(=O)N[C@@H](CC(=O)OC(C)(C)C)C(=O)NC(Cc2ccc3c(N)nccc3c2)C(=O)N2CCCCC2)c(C)c1C (some centres not stated)	inactive: -1.23	inactive: 0.317	inactive: 1.71
C[C@@H]1CN(c2ccc(F)cc2C(F)(F)F)CCN1S(=O)(=O)c1cccc(C(C)(O)C(F)(F)F)c1 (some centres not stated)	inactive: -1.06	inactive: -0.697	inactive: 0.558
O=C(c1ccc(F)cc1)C1CCN(CCC2Cc3ccc(F)cc3C2=O)CC1 (configuration not stated)	inactive: -1.25	inactive: 0.137	inactive: -0.668
CC(C)(CC(=O)N1CCCC1)NCC(=O)N1C[C@@H](F)C[C@H]1C#N	inactive: -1.62	inactive: -0.158	inactive: 2.47
N[C@@H](Cc1c[nH]cn1)C(=O)O [L-Histidine]	inactive: -1.23	inactive: -0.455	inactive: 2.25
C[C@H]1CN(C[C@H](Cc2ccccc2)C(=O)NCC(=O)O)CC[C@@]1(C)c1cccc(O)c1 [alvimopan]	inactive: -0.985	inactive: -0.34	inactive: 1.33
CCOc1cccc(CN2CCCCC23Cc2ccccc2CNC3=O)c1 (configuration not stated)	inactive: -2.36	–	inactive: -0.631
NC(=O)C1CCCc2c1[nH]c1ccc(Cl)cc21 (configuration not stated) [selisistat]	inactive: 0.125	active: 6.11	inactive: 1.74
Cc1cc(NS(=O)(=O)c2ccc(N)cc2)n(-c2ccccc2)n1	inactive: -0.68	inactive: -0.451	inactive: 0.111
CC(C)(CO)C(O)C(=O)NCCCC(=O)O (configuration not stated) [calcium hopantothenate]	inactive: -2.33	inactive: 1.24	inactive: -0.995
CS(=O)(=O)Nc1ccc([N+](=O)[O-])cc1Oc1ccccc1 [nimesulide]	inactive: 0.422	inactive: -1.72	inactive: 1.51
O=c1[nH]c2c(O)ccc(CCNCCCS(=O)(=O)CCOCCc3cccc4ccccc34)c2s1	inactive: -0.788	inactive: -1.28	inactive: -0.241
CCC(=O)OCC(=O)[C@@]1(OC(=O)CC)[C@@H](C)C[C@H]2[C@@H]3CCC4=CC(=O)C=C[C@]4(C)[C@@]3(F)[C@@H](O)C[C@@]21C [betamethasone diproprionate]	inactive: -1.29	inactive: 0.39	inactive: 2.53
NC(=O)CN1C(=O)CC(c2ccccc2)Sc2ccccc21 (configuration not stated)	inactive: -1.09	inactive: -0.205	inactive: 1.65
CC(C)C(=O)N1Cc2ccccc2CC2(CCCCN2Cc2ccncc2)C1 (configuration not stated)	inactive: -0.225	–	inactive: -0.568
OC[C@@H](O)[C@@H](O[C@@H]1O[C@H](CO)[C@H](O)[C@H](O)[C@H]1O)[C@H](O)[C@@H](O)CO	inactive: -0.326	inactive: 0.0603	inactive: -1.35
OCCc1ccc(OCCn2ccnc2)cc1	inactive: -1.19	inactive: 1.14	inactive: 0.595
Cc1ccc(-c2nc3c(nc2-c2ccc(C)cc2)N(CCCCCCC(=O)O)CCC3)cc1	inactive: -0.265	inactive: -1.01	inactive: -0.129
COC(=O)c1ccc(C)c(-c2cccc(NCCNCC(O)c3cccc(Cl)c3)c2)c1 (configuration not stated)	inactive: -1.18	inactive: -1.26	inactive: -0.956
